Taken from: PubChem BioAssay AID1259308 (NCATS, 2017)
In all, the deposit lists about 59,000 reagents; this is an unselected part. About 1,510 of them (2.6%) were called active. 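Calls use total luciferase alone and ignore viability, so some active siRNAs may act by altering cell number.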 Unmarked entries are inactive.

Screen: 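Knock-downs that increase output of a recombinant reporter protein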 (primary screen)
Cells: human HEK293 embryonic kidney cells stably expressing firefly luciferase (HEK-CMV-Luc2-Hygro)
Reagents: single siRNA against human genes, 0.8 pmol siRNA per well
Time to read-out: 72 h
Measured: 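Reporter luminescence and viable-cell signal on separate replicate plates, given as percent of non-targeting control and median/MAD z-scores, plus per-cell luciferase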
Reading the numbers: total luciferase, z-score and total luciferase, % of control: higher = more reporter protein produced; luciferase per cell, z-score: higher = more reporter output per viable cell; viable cells, % of control: higher = more viable cells
Hit rule: 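Active when the median/MAD z-score for overall luciferase is greater than 3; a gene was taken forward for validation with new siRNAs if at least two of its three siRNAs passed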
Meaning of the calls: active = raised luciferase; inactive = no rise

gene knocked down | PubChem SID | total luciferase, z-score | total luciferase, % of control | luciferase per cell, z-score | viable cells, % of control
NRXN2 (neurexin 2) | SID160722080 | 1.1 | 104 | 0.597 | 99
NRXN2 (neurexin 2) | SID160722082 | 0.721 | 96.2 | 0.227 | 101
NRXN2 (neurexin 2) | SID160722083 | -0.246 | 77 | 0.518 | 75.1
CSNK1G3 (casein kinase 1 gamma 3) | SID160749437 | 0.0583 | 83 | -0.264 | 99.5
CSNK1G3 (casein kinase 1 gamma 3) | SID160749448 | 0.368 | 89.2 | -0.118 | 103
CSNK1G3 (casein kinase 1 gamma 3) | SID160749459 | 0.13 | 84.5 | -0.496 | 108
LSAMP (limbic system associated membrane protein) | SID160776742 | -0.699 | 68 | -0.162 | 79.3
LSAMP (limbic system associated membrane protein) | SID160776745 | 0.432 | 90.5 | 0.117 | 98
LSAMP (limbic system associated membrane protein) | SID160776746 | -0.18 | 78.3 | 0.621 | 74.3
ERBB4 (erb-b2 receptor tyrosine kinase 4) | SID160761439 | 0.85 | 98.8 | 0.415 | 99
ERBB4 (erb-b2 receptor tyrosine kinase 4) | SID160761450 | -1.19 | 58.2 | -1.81 | 105
ERBB4 (erb-b2 receptor tyrosine kinase 4) | SID160761461 | -0.596 | 70 | -0.853 | 98
NPIPB3 (nuclear pore complex interacting protein family member B3) | SID160735489 | -0.56 | 70.7 | -1.09 | 105
NPIPB3 (nuclear pore complex interacting protein family member B3) | SID160735490 | 0.855 | 98.9 | 0.223 | 104
NPIPB3 (nuclear pore complex interacting protein family member B3) | SID160735491 | 0.588 | 93.6 | 0.474 | 92.3
ADCK5 (aarF domain containing kinase 5) | SID160724929 | 0.00387 | 82 | -0.447 | 103
ADCK5 (aarF domain containing kinase 5) | SID160761085 | 1.05 | 103 | 1.16 | 84.7
ADCK5 (aarF domain containing kinase 5) | SID160761086 | 3.55 (active) | 152 | 2.34 | 91.9
CALCR (calcitonin receptor) | SID160735775 | -0.784 | 66.3 | 0.441 | 66
CALCR (calcitonin receptor) | SID160735786 | -1.74 | 47.2 | -1.61 | 80.6
CALCR (calcitonin receptor) | SID160735797 | -0.0523 | 80.8 | -0.125 | 93.4
IFNL1 (interferon lambda 1) | SID160762716 | 0.699 | 95.8 | 1.32 | 75.6
IFNL1 (interferon lambda 1) | SID160762717 | -1.49 | 52.2 | -1.49 | 86.3
IFNL1 (interferon lambda 1) | SID160762719 | 0.388 | 89.6 | -0.165 | 105
